Measured values taken from PubChem BioAssay AID504847 (National Center for Advancing Translational Sciences (NCATS), 2011).
Hit rate of the full screen: of about 400,000 compounds, about 3,700 (0.93%) were called active. Inconclusive results, whose numbers are uncertain, are shown with a selection of clear calls. Calls follow the shape of the dose curve; as a rule, active = well fitted inhibition curve with a large enough effect; inconclusive = small, poorly fitted or top-dose-only effect, or another doubt; inactive = no such curve, though single readings can be large or run the other way. Potencies of inconclusive entries are doubtful fits and often do not repeat.

The chains behind the UniProt entries cited, without tags or fusion partners. Where a name states a change or a piece, a line headed by the entry shows the natural chain unless it says otherwise.
UniProt P11473: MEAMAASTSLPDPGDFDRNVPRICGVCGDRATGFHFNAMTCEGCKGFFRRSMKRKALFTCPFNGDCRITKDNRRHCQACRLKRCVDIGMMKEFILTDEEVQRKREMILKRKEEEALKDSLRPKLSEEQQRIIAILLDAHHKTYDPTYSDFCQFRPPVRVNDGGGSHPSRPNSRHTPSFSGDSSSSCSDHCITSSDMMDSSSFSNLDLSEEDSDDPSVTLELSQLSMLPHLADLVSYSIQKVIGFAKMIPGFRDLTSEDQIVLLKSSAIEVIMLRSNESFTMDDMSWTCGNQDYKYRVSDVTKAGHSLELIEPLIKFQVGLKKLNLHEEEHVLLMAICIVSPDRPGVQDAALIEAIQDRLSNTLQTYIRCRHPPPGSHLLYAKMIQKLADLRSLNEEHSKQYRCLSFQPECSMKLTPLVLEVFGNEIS

Each compound was assayed against Vitamin D3 receptor (Homo sapiens) (UniProt P11473) (assay: Inhibitors of the vitamin D receptor (VDR): qHTS). Details: VDR-SRC2-3 peptide fluorescence polarization, 2 h; max response, negative = inhibition: stronger effect = lower value.
Method in brief: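 Reagent solutions, kept cold and dark, are dispensed first; compounds are then pinned in at 23 nl, plates briefly spun, and incubated 2 h at ambient temperature. Inhibition of VDR–SRC2-3 peptide binding is read by fluorescence polarization.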
% is scaled to controls: 0 for no effect and ±100 for the full control effect; potency is read from the fitted curve at half-maximal effect.

| Structure (SMILES) | max response, negative = inhibition | Potency |
| --- | --- | --- |
| COc1cccc(/C=C2/Sc3ccc(C(=O)NCCN4CCCC4)cc3NC2=O)c1 | inactive: 4.55% | – |
| COC(=O)c1nn(-c2ccccc2)c(Cl)c1/C=N/OCc1c(Cl)cccc1Cl | inactive: 6.51% | – |
| O=S(=O)(c1ccccc1)N1CCN(c2ncnc3scc(-c4ccccc4)c23)CC1 | – | inconclusive: 89.1 µM [inhibitor, single point] |
| Cc1cccc(Cn2c(CN3CCC(C(=O)NCCc4ccccc4)CC3)cc3ccccc32)c1 | inactive: 6.84% | – |
| Cc1ccccc1NC(=O)C(Cl)=C(Cl)Cl | – | inconclusive: 100 µM [inhibitor, partial curve, poor fit] |
| COc1ccc(CCNC(=O)Cn2nnc(-c3ccc(C(F)(F)F)cc3)n2)cc1OC | inactive: -7.95% | – |
| CCCn1c(CCC(=O)O)ccc1-c1ccccc1 | – | inconclusive: 89.1 µM [inhibitor, single point] |
| COc1cc(/C=C/c2ccc(O)cc2)cc(OC)c1 | inactive: -0.092% | – |
| C#CCOCCOCCOCCNc1nc(N2CCN(C(=O)Cn3cc(CCCCN)nn3)CC2)nc(N2CCN(C(=O)[C@H]([C@@H](C)CC)n3cc(CCCCN)nn3)CC2)n1 | inactive: -13% | – |
| O=C(CSCCc1ccccn1)Nc1ccccn1 | – | inconclusive: 100 µM [inhibitor, single point] |
| CN(C)N1C(N)=C(C#N)C(c2ccsc2)C2=C1CCCC2=O (stereo not drawn) | – | inconclusive: 79.4 µM [inhibitor, single point] |
| CC(=O)N1c2ccc(S(=O)(=O)NCCC(=O)NCCc3ccc(C)cc3)cc2CC1C (stereo not drawn) | – | inconclusive: 39.8 µM [inhibitor, single point] |
| COc1ccc(Nc2nc(N3CCOCC3)nc(N3CCOCC3)n2)cc1 | inactive: -9.9% | – |
| COc1cccc(/C=N/NC(=S)Nc2cccc(S(=O)(=O)N(C)C)c2)c1 | – | active: 79.4 µM |
| O=C(CCCCCN1C(=O)[C@@H]2Cc3ccccc3CN2C1=O)Nc1cccc(F)c1 | inactive: -2.07% | – |
| CCOC(=O)c1c(NC(=O)c2noc3c2CC(C(C)(C)C)CC3)sc2c1CCCC2 (stereo not drawn) | – | inconclusive: 70.8 µM [inhibitor, partial curve, poor fit] |
| CC(=O)c1sc2c(c1C)c(=O)n(-c1ccc(Cl)cc1)c(=O)n2Cc1ccc(Cl)cc1 | inactive: 4.79% | – |
| COc1cc(/C=C(\C#N)C(=O)c2c(C)[nH]c3ccccc23)cc(OC)c1OC | – | inconclusive: 89.1 µM [inhibitor, single point] |
| COc1ccc(C(=O)NCCc2cn3ccc(C)cc3n2)cc1 | – | inconclusive: 0.708 µM [inhibitor, full curve, poor fit] |
| Brc1ccc(-c2csc(NC3=NCCCCC3)n2)cc1 | inactive: 7.67% | – |
| O=C(NCc1ccc2c(c1)OCO2)c1ccc(CSCc2ccc(Cl)cc2)o1 | – | inconclusive: 3.98 µM [inhibitor, full curve, poor fit] |
| NS(=O)(=O)c1ccc(CCNC(=O)CSc2ccc3ccccc3c2)cc1 | – | inconclusive: 89.1 µM [inhibitor, single point] |
| O=C1C(=O)c2ccc(-c3ccccc3)cc2-c2ccccc21 | – | active: 3.55 µM |

| Structure (SMILES) | max response, negative = inhibition | Potency |
| --- | --- | --- |
| O=C(O)c1ccc(OCCCCCCOC2CCCCO2)cc1 (stereo not drawn) | – | inconclusive: 39.8 µM [inhibitor, single point] |
| CCOC(=O)C1Nc2ccc(C(F)(F)F)cc2C2C=CCC12 (stereo not drawn) | – | inconclusive: 56.2 µM [inhibitor, partial curve, poor fit] |
| CC(C)(C)C1CCC2(CC1)NC(=S)N(c1ccccc1)N2 (stereo not drawn) | – | inconclusive: 89.1 µM [inhibitor, partial curve] |
| C=C(CN(C)C)C(=O)c1ccc(C)cc1C | – | active: 17.8 µM |
| CC(=O)C1=C(O)C(=O)N(C2CCCCC2)C1c1ccccc1 (stereo not drawn) | – | inconclusive: 100 µM [inhibitor, single point] |
| O=C(NC1CCCC1)C(c1ccncc1)N(Cc1ccco1)C(=O)c1ccc(-c2ccccc2)[nH]1 (stereo not drawn) | – | inconclusive: 79.4 µM [inhibitor, single point] |
| COc1ccc(NC(=O)CSc2nc(-c3ccco3)cc(C(F)(F)F)n2)cc1Cl | inactive: -11.6% | – |
| CCCc1c(C(=O)N/N=C/c2cccs2)nnn1-c1nonc1N | – | inconclusive: 0.631 µM [inhibitor, full curve, poor fit] |
| Cc1ccc(Oc2c(C(N)=O)cc([N+](=O)[O-])cc2[N+](=O)[O-])cc1 | – | active: 28.2 µM |
| CCN(CC)S(=O)(=O)c1cc(NC(=O)c2ccc3c(c2)NC(=O)C(C)S3)ccc1C (stereo not drawn) | – | active: 79.4 µM |
| COc1ccc(CN2C(=O)c3cccnc3C2=O)cc1S(=O)(=O)N1CCOc2ccc(C)cc21 | – | inconclusive: 100 µM [inhibitor, partial curve, poor fit] |
| O=C(/C=C/c1ccccc1)Nc1ccc(Br)cn1 | inactive: 6.87% | – |
| O=C(CSc1ncccc1-c1nc2ccccc2[nH]1)NCc1ccco1 | – | inconclusive: 89.1 µM [inhibitor, partial curve, poor fit] |
| CCCC(=O)Nc1ccc(N2CCOCC2)cc1 | inactive: -2.37% | – |
| O=C(Nc1ccc(NC(=O)c2ccccc2)nc1)c1ccncc1 | – | inconclusive: 31.6 µM [inhibitor, partial curve, poor fit] |
| Cn1c2ccccc2c2nnc(SCC(=O)Nc3cccc(C(=O)O)c3)nc21 | – | inconclusive: 50.1 µM [inhibitor, partial curve, poor fit] |
| CN(C)c1ccc(Cc2cc3c(O)ccc(O)c3cc(Cc3ccc(N(C)C)cc3)c2=O)cc1 | – | active: 44.7 µM |
| CCOC(=O)Cc1nnc(NC(=O)C(CC)Sc2nc(C)cc(=O)[nH]2)s1 (stereo not drawn) | – | inconclusive: 70.8 µM [inhibitor, partial curve, poor fit] |
| COc1ccc(C)cc1NC(=O)c1cc2ccccc2cc1OCC(=O)NCc1ccco1 | inactive: 2.83% | – |
| CC(=O)Nc1cc(NC(=O)C2C3C=CC(C3)C2C(=O)O)ccc1Cl (stereo not drawn) | – | inconclusive: 22.4 µM [inhibitor, partial curve, poor fit] |
| O=C(CCSc1ccccn1)c1ccccc1 | – | inconclusive: 35.5 µM [inhibitor, full curve, poor fit] |
| O=C(CSCc1c(Cl)cccc1Cl)Nc1ccc2c(c1)OCO2 | inactive: -5.4% | – |
| CC1CCC(=C(C#N)c2nc(-c3cc4ccccc4oc3=O)cs2)CC1 (stereo not drawn) | inactive: -19.9% | – |

| Structure (SMILES) | max response, negative = inhibition | Potency |
| --- | --- | --- |
| C=CCN(Cc1nc(-c2cc(OC)c3c(c2)OCO3)oc1C)C1CCS(=O)(=O)C1 (stereo not drawn) | – | inconclusive: 89.1 µM [inhibitor, single point] |
| COc1cc(CNC2CCCCCC2)cc(OC)c1 | inactive: 3.26% | – |
| COc1ccc(N2C(=S)N(C(=O)c3ccccc3)C(=Nc3ccccc3)C2=Nc2ccccc2)cc1 | – | inconclusive: 17.8 µM [inhibitor, full curve, poor fit] |
| CS(=O)(=O)c1nc(-c2ccccc2)cc(C(F)(F)F)n1 | – | inconclusive: 20 µM [inhibitor, full curve, poor fit] |
| C=CCNC(=O)/C(C#N)=C\c1cc(Cl)c(OCC)c(OC)c1 | – | inconclusive: 79.4 µM [inhibitor, partial curve, poor fit] |
| O=c1[nH]c(/C=C/c2ccccc2Cl)c([N+](=O)[O-])c(=O)[nH]1 | – | active: 35.5 µM |
| CCOC(=O)COc1c(Cl)cc(/C=C2\N=C(C)OC2=O)cc1OC | – | inconclusive: 5.01 µM [inhibitor, full curve, poor fit] |
| COc1ccc(OC)c(NC(=O)Cc2c(C(=O)O)n(C)c3ccc(C)cc23)c1 | – | inconclusive: 31.6 µM [inhibitor, partial curve, poor fit] |
| CCc1cc2ccccc2nc1SCC(=O)Nc1cc(OC)c(OC)cc1C(=O)O | – | inconclusive: 44.7 µM [inhibitor, partial curve, poor fit] |
| O=C(C1=C(O)C(=O)N(CCN2CCOCC2)C1c1ccc([N+](=O)[O-])cc1)c1cccs1 (stereo not drawn) | – | inconclusive: 79.4 µM [inhibitor, partial curve, poor fit] |
| O=C(CSc1nnc(CNC(=O)c2c(F)cccc2Cl)o1)NCc1ccc(F)cc1 | – | inconclusive: 11.2 µM [inhibitor, partial curve, poor fit] |
| CCCCC1=CC2=C(c3ccco3)C(=O)C(C)(OC(=O)c3ccc(OC)cc3)C(=O)C2=CN1C(CO)CO (stereo not drawn) | – | inconclusive: 100 µM [inhibitor, single point] |
| Cc1ccccc1OCC(=O)NCC(=O)OCc1ccc(Br)cc1 | – | inconclusive: 89.1 µM [inhibitor, single point] |
| O=S(=O)(c1cccc(F)c1)N1CCC(Oc2ccc(-n3cnnn3)cc2)CC1 | inactive: 12.4% | – |
| CCc1ccccc1Nc1ccc(C(=O)O)cc1N | inactive: -8.65% | – |
| CNC(=O)c1[nH]cnc1C(=O)Nc1cccc(Cl)c1 | – | inconclusive: 63.1 µM [inhibitor, partial curve, poor fit] |
| COc1ccc2[nH]cc(CCNC(=O)CCC3CCCCC3)c2c1 | inactive: 2.7% | – |
| Cc1ccc(N=C2NC(=O)/C(=C/c3cccn3C)S2)cc1C | inactive: -0.769% | – |
| COc1cccc(CNC(=O)CCC2CCCN(C(=O)CCC(F)(F)F)C2)c1 (stereo not drawn) | inactive: 8.9% | – |
| COc1cccc(C2=NC(C)(C)NC(c3ccccc3O)C2)c1 (stereo not drawn) | – | inconclusive: 89.1 µM [inhibitor, single point] |
| CCC(=O)N1c2ccc(S(=O)(=O)CCC(=O)Nc3ccc(Br)c(C)c3)cc2CC1C (stereo not drawn) | inactive: -20.7% | – |
| CCC(C)c1ccc(NC(=S)Nc2ccc(OC)cc2)cc1 (stereo not drawn) | – | inconclusive: 56.2 µM [inhibitor, partial curve, poor fit] |

Another view of some results above:
Structure (SMILES)	max response, negative = inhibition	Potency
O=C(CSc1ncccc1-c1nc2ccccc2[nH]1)NCc1ccco1	–	inconclusive: 89.1 µM [inhibitor, partial curve, poor fit]
CCCC(=O)Nc1ccc(N2CCOCC2)cc1	inactive: -2.37%	–
O=C(Nc1ccc(NC(=O)c2ccccc2)nc1)c1ccncc1	–	inconclusive: 31.6 µM [inhibitor, partial curve, poor fit]
Cn1c2ccccc2c2nnc(SCC(=O)Nc3cccc(C(=O)O)c3)nc21	–	inconclusive: 50.1 µM [inhibitor, partial curve, poor fit]
CN(C)c1ccc(Cc2cc3c(O)ccc(O)c3cc(Cc3ccc(N(C)C)cc3)c2=O)cc1	–	active: 44.7 µM
CCOC(=O)Cc1nnc(NC(=O)C(CC)Sc2nc(C)cc(=O)[nH]2)s1 (stereo not drawn)	–	inconclusive: 70.8 µM [inhibitor, partial curve, poor fit]
COc1ccc(C)cc1NC(=O)c1cc2ccccc2cc1OCC(=O)NCc1ccco1	inactive: 2.83%	–
CC(=O)Nc1cc(NC(=O)C2C3C=CC(C3)C2C(=O)O)ccc1Cl (stereo not drawn)	–	inconclusive: 22.4 µM [inhibitor, partial curve, poor fit]
O=C(CCSc1ccccn1)c1ccccc1	–	inconclusive: 35.5 µM [inhibitor, full curve, poor fit]
O=C(CSCc1c(Cl)cccc1Cl)Nc1ccc2c(c1)OCO2	inactive: -5.4%	–
CC1CCC(=C(C#N)c2nc(-c3cc4ccccc4oc3=O)cs2)CC1 (stereo not drawn)	inactive: -19.9%	–
C=CCN(Cc1nc(-c2cc(OC)c3c(c2)OCO3)oc1C)C1CCS(=O)(=O)C1 (stereo not drawn)	–	inconclusive: 89.1 µM [inhibitor, single point]
COc1cc(CNC2CCCCCC2)cc(OC)c1	inactive: 3.26%	–
COc1ccc(N2C(=S)N(C(=O)c3ccccc3)C(=Nc3ccccc3)C2=Nc2ccccc2)cc1	–	inconclusive: 17.8 µM [inhibitor, full curve, poor fit]
CS(=O)(=O)c1nc(-c2ccccc2)cc(C(F)(F)F)n1	–	inconclusive: 20 µM [inhibitor, full curve, poor fit]
C=CCNC(=O)/C(C#N)=C\c1cc(Cl)c(OCC)c(OC)c1	–	inconclusive: 79.4 µM [inhibitor, partial curve, poor fit]
O=c1[nH]c(/C=C/c2ccccc2Cl)c([N+](=O)[O-])c(=O)[nH]1	–	active: 35.5 µM
CCOC(=O)COc1c(Cl)cc(/C=C2\N=C(C)OC2=O)cc1OC	–	inconclusive: 5.01 µM [inhibitor, full curve, poor fit]
COc1ccc(OC)c(NC(=O)Cc2c(C(=O)O)n(C)c3ccc(C)cc23)c1	–	inconclusive: 31.6 µM [inhibitor, partial curve, poor fit]
CCc1cc2ccccc2nc1SCC(=O)Nc1cc(OC)c(OC)cc1C(=O)O	–	inconclusive: 44.7 µM [inhibitor, partial curve, poor fit]
